In patent US8545876B1, “Modified drugs for use in liposomal nanoparticles” (The University of British Columbia, priority 2008, dated 2013):
Some entries share one result that the patent states for a list of compounds.

Test: Chemical (hydrolytic) stability in buffered aqueous solutions
Format: physicochemical
Details: 24 hour incubation in pH 4 buffer, 37° C.
Procedure: The chemical stability of the docetaxel derivatives was determined in aqueous solutions at different pH values and temperatures, and in biological media (mouse plasma). Aliquots of the docetaxel derivatives in acetonitrile were mixed with buffered citrate/HEPES (10 mM/10 mM) solutions at pH 4.0 and 7.5, or in mouse plasma in 1 mL glass HPLC sample vials sealed with Teflon-lined caps (final volume 0.25 ml, final docetaxel derivative concentration 50 µg/ml). Drug stability was determined 1, 4 and 24 hrs after incubation at 37° C. by UPLC-UV. At the indicated time points, a 3-fold excess of methanol/0.1% TFA was added to the sample. Citrate/HEPES buffered samples were analyzed by UHPLC as described above. For plasma samples, proteins precipitated by the addition of methanol/0.1% TFA pelleted by centrifugation at 14,000×g and supernatants were analyzed for the drug derivatives. Heparanized mouse plasma was diluted to 50% with 100 mM sodium-phosphate buffer to keep the pH constant throughout the experiment.
To be suitable for formulation in LN, derivatives must be stable at pH 4 (the pH present inside the LN carrier). In addition, prodrug derivatives should readily form the active drug under physiological conditions (e.g., at pH 7.4 and/or in the presence of endogenous enzymes) once released from the LN. […] TD1-3 and TD7 were selected for loading into LN and testing of such LN for drug release in vitro.
For `CC(=O)O[C@@]12CO[C@@H]1C[C@H](O)[C@@]1(C)C(=O)[C@H](O)C3=C(C)[C@@H](OC(=O)[C@H](OC(=O)CCCCN4CCN(C)CC4)[C@@H](NC(=O)OC(C)(C)C)c4ccccc4)C[C@@](O)([C@@H](OC(=O)c4ccccc4)C12)C3(C)C` (stereo partly shown) [TD3, N-methyl-piperazinyl pentanoic acid ester], the “Prodrug levels (% remaining), pH 4” value was “adequate stability”. In the case of `CC(=O)O[C@@]12CO[C@@H]1C[C@H](O)[C@@]1(C)C(=O)[C@H](O)C3=C(C)[C@@H](OC(=O)[C@H](OC(=O)CCCN4CCN(C)CC4)[C@@H](NC(=O)OC(C)(C)C)c4ccccc4)C[C@@](O)([C@@H](OC(=O)c4ccccc4)C12)C3(C)C` (stereo partly shown) [TD1, 2′-O-(N-methyl-piperazinylbutanoic acid ester) derivative of docetaxel], the “Prodrug levels (% remaining), pH 4” value is reported as “adequate stability”. With `CC(=O)O[C@@]12CO[C@@H]1C[C@H](O)[C@@]1(C)C(=O)[C@H](O)C3=C(C)[C@@H](OC(=O)[C@H](OC(=O)CCCN4CCOCC4)[C@@H](NC(=O)OC(C)(C)C)c4ccccc4)C[C@@](O)([C@@H](OC(=O)c4ccccc4)C12)C3(C)C` (stereo partly shown) [TD4, Morpholino butanoic acid ester] the “Prodrug levels (% remaining), pH 4” value was “adequate stability”. In the case of `CC(=O)O[C@@]12CO[C@@H]1C[C@H](O)[C@@]1(C)C(=O)[C@H](O)C3=C(C)[C@@H](OC(=O)[C@H](OC(=O)CN4CCN(C)CC4)[C@@H](NC(=O)OC(C)(C)C)c4ccccc4)C[C@@](O)([C@@H](OC(=O)c4ccccc4)C12)C3(C)C` (stereo partly shown) [TD2, N-methyl-piperazinyl acetic acid ester], the “Prodrug levels (% remaining), pH 4” value is reported as “adequate stability”.
